Results on 43 molecules are retold here after patent US20040253247A1.

Chains of the proteins cited; added tags and fusions are not shown. Residues count along the entry.
UniProt P49065, residues 25-608: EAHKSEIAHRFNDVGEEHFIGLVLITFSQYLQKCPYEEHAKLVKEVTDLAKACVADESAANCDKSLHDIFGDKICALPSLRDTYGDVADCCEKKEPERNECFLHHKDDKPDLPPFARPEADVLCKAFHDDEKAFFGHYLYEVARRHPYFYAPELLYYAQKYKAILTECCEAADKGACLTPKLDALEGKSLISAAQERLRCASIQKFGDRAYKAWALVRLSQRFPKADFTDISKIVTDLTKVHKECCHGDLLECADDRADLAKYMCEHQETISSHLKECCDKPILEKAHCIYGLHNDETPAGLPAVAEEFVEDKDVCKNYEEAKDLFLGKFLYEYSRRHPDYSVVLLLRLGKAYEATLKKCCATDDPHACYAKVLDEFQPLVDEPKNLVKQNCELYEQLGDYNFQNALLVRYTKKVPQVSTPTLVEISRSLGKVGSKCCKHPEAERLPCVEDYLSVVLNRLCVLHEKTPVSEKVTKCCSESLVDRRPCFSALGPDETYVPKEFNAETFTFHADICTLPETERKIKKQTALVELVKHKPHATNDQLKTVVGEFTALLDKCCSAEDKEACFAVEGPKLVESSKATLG
UniProt P02770, residues 25-608: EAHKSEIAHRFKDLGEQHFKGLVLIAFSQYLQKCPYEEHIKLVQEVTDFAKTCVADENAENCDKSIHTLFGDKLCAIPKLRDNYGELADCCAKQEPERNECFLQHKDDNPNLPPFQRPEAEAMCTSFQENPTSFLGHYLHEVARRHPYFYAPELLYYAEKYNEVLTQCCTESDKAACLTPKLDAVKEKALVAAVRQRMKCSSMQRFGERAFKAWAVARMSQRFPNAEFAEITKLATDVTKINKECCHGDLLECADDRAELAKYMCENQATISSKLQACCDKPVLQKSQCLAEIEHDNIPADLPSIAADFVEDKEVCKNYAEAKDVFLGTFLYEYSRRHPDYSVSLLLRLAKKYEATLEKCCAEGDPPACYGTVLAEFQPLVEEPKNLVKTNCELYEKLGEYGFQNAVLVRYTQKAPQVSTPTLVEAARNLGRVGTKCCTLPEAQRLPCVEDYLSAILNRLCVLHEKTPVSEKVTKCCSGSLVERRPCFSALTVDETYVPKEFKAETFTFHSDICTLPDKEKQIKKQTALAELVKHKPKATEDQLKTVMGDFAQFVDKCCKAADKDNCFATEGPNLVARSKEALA

No constants are given. Whether binding was seen depends on the method and setting. Some binding calls cover weakened binding; strength is not graded here. For part of these data: Tags and fused reporters may be left off the sequences shown.

One test deals with rabbit albumin (rabbit) (UniProt P49065). Briefly: phage ELISA. (In general: An ELISA detects its analyte on a solid surface through an enzyme-linked reagent.)
As for GENWCDSTLMAYDLCGQVNM [BA], the binding entry was “binds”.
Same read-out and setting: as for DLCDVDFCWF [BC], the entry is “binds”; as for MDELAFYCGIWECLMHQEQK [BB], “binds”; as for RWQTEDVCLPKWGCLFGDGV [RB-B1], “binds”.
With ERQMVDFCLPKWGCLWGDGF [RB-R11], the binding result is on record as “binds”.
For QGDFWDICLPRWGCLSGEGY [RB-B10], the binding entry is listed as “binds”.
Consider QRHMMDFCLPKWGCLWGDGY [RB-R4], for which the binding entry is “binds”.
Still for that read-out and setting: the value for QSQLEDFCLPKWGCLWGDGF [RB-R15] was “binds”; that for KMGRVDFCLPKWGCLWGDEL [RB-R13] was “binds”.
With QRPIMDFCLPKWGCLWEDGF [RB-R7], the binding entry is reported as “binds”.
Same read-out and setting: the value for QGYMVDFCLPRWGCLWGDAN [RB-R12] was “binds”.
On the same count and under the same terms, as for KSCSELHWLLVEECLF [BD], the entry is “binds”.

The target in another test is rat albumin (rat) (UniProt P02770). The test can be described thus: phage ELISA.
For the molecule RWQTEDVCLPKWGCLFGDGV [RB-B1], the binding entry is listed as “binds”.
Same read-out and setting: the value for ERQMVDFCLPKWGCLWGDGF [RB-R11] was “binds”; that for QGDFWDICLPRWGCLSGEGY [RB-B10] was “binds”; that for QRHMMDFCLPKWGCLWGDGY [RB-R4] was “binds”.
Still for that read-out and setting: as for QSQLEDFCLPKWGCLWGDGF [RB-R15], the entry is “binds”; as for KMGRVDFCLPKWGCLWGDEL [RB-R13], “binds”; as for QRPIMDFCLPKWGCLWEDGF [RB-R7], “binds”.
For QGYMVDFCLPRWGCLWGDAN [RB-R12], the binding result is reported as “binds”.

The target of another test is IgG-Fc [IgG part: P01857]. The test can be described thus: phage selection on IgG-Fc; not individually assayed (N/A).
As for AVSKCSFHMGELVWCSDVMN, the binding result is recorded as “binds”.
As for KEASCSYWLGELVWCSEGVE, the binding result is on record as “binds”.
In the case of KEASCSYWLGELVWCSDLWE, the binding result was “binds”.
On the same count and under the same terms, as for KEASCSYWLGELVWCDDTPV, the entry is “binds”.
For the molecule NQVSCSYSRGELVWCSKQSQ, the binding result is recorded as “binds”.
For WRGGCSWHMGELVWCEHDME, the binding entry was “binds”.
Still for that read-out and setting: as for GEADCAWHLGELVWCTPMDL, the entry is “binds”; as for KEASCSYWLGELVWCDDYGE, “binds”.
As for GSWECAYHLGELVWCETGSG, the binding entry is reported as “binds”.
The same measure, in the same setting: the value for NADDCSYWLGELVWCVAGVE was “binds”.
The same measure, in the same setting: the value for EMRDCSWHLGELVWCAHMEG was “binds”.
Still for that read-out and setting: the value for KEASCSYWLGELVWCEDTLE was “binds”.
Turning to KEASCSYWLGELVWCDNGVE, the binding result was “binds”.
Consider KEASCSYWLGEVWKCKSGVE, for which the binding entry is on record as “binds”.
The same measure, in the same setting: the value for EEADCSYWLGELVWCVAGVE was “binds”.
Same read-out and setting: the value for KEAECSYHLGELVWCVAGVE was “binds”; that for AWKTCQWLGELVWCVAGVE was “binds”.
Same read-out and setting: the value for KEASCSYWLGELVWCEDTME was “binds”; that for KEASCSYWLGELVWCDDGVE was “binds”.
EDPDCSYWLGELVWCVAGVE: the binding result is “binds”.
On the same count and under the same terms, as for GVADCAWHLGELVWCTERED, the entry is “binds”; as for GEQDCSWHLGELVWCTPMEV, “binds”; as for KEASCSYWLGELVWCDWMNG, “binds”.
Still for that read-out and setting: as for GTMECSWHQGELVWCTPTLA, the entry is “binds”; as for VAEPCAYHLGELVWCEVLKG, “binds”; as for KEASCSYWLGELVWCEDMME, “binds”.
As to RVASCAWHLGELVWCDGLDG, the binding entry is “binds”.
Same read-out and setting: the value for GMRDCSYHLGELVWCSDMEL was “binds”; that for GRMECAWHQGELVWCTPTLE was “binds”.
For SETTCSYWLGELVWCVAGVE, the binding result is “binds”.
Same read-out and setting: as for KEAMCSYWLGELVWCESDMP, the entry is “binds”.
